The target of this test is GFP-Vamp7 deleted of its SNARE motif (GFP-Longin) (UniProt P51809). Kind of test: co-IP; HeLa cells co-transfected with the inclusion protein and a GFP-SNARE, lysed 24 h later in 50 mM Tris, 150 mM NaCl, 1% Triton X-100, 10 mM EDTA, pH 7.5; GFP-tagged proteins precipitated with anti-GFP monoclonal antibodies; blots with anti-IncA or anti-His.

Chains of the proteins cited; added tags and fusions are not shown. Lines headed by an entry give the natural chain unless they say otherwise; changes in a name come on top.
UniProt P51809: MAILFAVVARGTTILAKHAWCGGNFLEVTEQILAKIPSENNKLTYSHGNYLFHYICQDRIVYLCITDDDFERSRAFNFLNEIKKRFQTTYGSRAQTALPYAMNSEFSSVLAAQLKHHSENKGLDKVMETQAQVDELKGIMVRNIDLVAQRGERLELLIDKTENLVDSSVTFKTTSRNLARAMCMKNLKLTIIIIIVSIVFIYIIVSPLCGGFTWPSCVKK

Results are given in words; binding and its absence hold for the method and conditions named. In cells and extracts the contact can be indirect. Where a sequence is shown, tags or fusion partners need not be part of it.

B1: C. trachomatis IncA with a carboxyterminal His tag, expressed in HeLa cells (protein, UniProt P0CI27 1-273)
chain: MTTPTLIVTPPSPPAPSYSANRVPQPSLMDKIKKIAAIASLILIGTIGFLALLGHLVGFLIAPQITIVLLALFIISLAGNALYLQKTANLHLYQDLQREVGSLKEINFMLSVLQKEFLHLSKEFATTSKDLSAVSQDFYSCLQGFRDNYKGFESLLDEYKNSTEEMRKLFSQEIIADLKGSVASLREEIRFLTPLAEEVRRLAHNQQSLTVVIEELKTIRDSLRDEIGQLSQLSKTLTSQIALQRKESSDLCSQIRETLSSPRKSASPSTKSS
For B1, the binding result was “no binding”.

Values taken from article PMC2265411.
